# Values from PubChem BioAssay AID1224831 (NIAID, 2016)
# Purpose: 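Confirming genome-wide hits on LPS-triggered TNF-alpha induction with independent siRNA sequences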 (follow-up of hits)
# System: human THP-1 B5 monocytic leukaemia cells carrying a TNF promoter luciferase reporter, made macrophage-like with PMA
# Reagent: single siRNA against human genes, 50 nM
# Time to read-out: about 68 h of knock-down, then 4 h LPS
# Treatment: LPS (Salmonella minnesota, TLR-grade) at 10 ng/ml for 4 h; PMA 5 ng/ml present during knock-down
# Detection: 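TNF promoter reporter read as dual luciferase ratio after 4 h LPS, normalised per plate to its median, given as replicate mean robust z-score per siRNA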
# Direction: TNF reporter z-score: higher = stronger LPS-induced TNF reporter signal; z-score, median over gene's siRNAs: higher = stronger TNF reporter signal across the gene's siRNAs
# Rule for the call: 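Two-sided call: reduced or raised TNF reporter signal counts as active once mean z reaches about -1 or below, or about 1.5 or above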
# Calls: active = changed TNF reporter (either direction); inactive = little change
# This is an unselected part of about 3,500 reagents tested. Over the whole deposit, 731 (21%) are marked active. 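Active means either lowered or raised reporter signal; the gene-median score did not drive the per-siRNA calls.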 A number with no mark means an inactive call. The numbers tell different reagents against one gene apart.
The opening 7 records as a preview:
target gene,reagent,"TNF reporter z-score, replicate mean","z-score, median over gene's siRNAs"
MAGEL2 (GeneID 54551),1,1.42,-0.52
MAGEL2 (GeneID 54551),2,-2.21 (active),-0.52
MAGEL2 (GeneID 54551),3,-0.51,-0.52
MAGEL2 (GeneID 54551),4,-0.53,-0.52
MAGEL2 (GeneID 54551),5,-0.54,-0.52
MAGEL2 (GeneID 54551),6,0.51,-0.52
STK4 (GeneID 6789),1,0.16,-0.075

Main list, from the first entry:
target gene,reagent,"TNF reporter z-score, replicate mean","z-score, median over gene's siRNAs"
MAGEL2 (GeneID 54551),1,1.42,-0.52
MAGEL2 (GeneID 54551),2,-2.21 (active),-0.52
MAGEL2 (GeneID 54551),3,-0.51,-0.52
MAGEL2 (GeneID 54551),4,-0.53,-0.52
MAGEL2 (GeneID 54551),5,-0.54,-0.52
MAGEL2 (GeneID 54551),6,0.51,-0.52
STK4 (GeneID 6789),1,0.16,-0.075
STK4 (GeneID 6789),2,-0.09,-0.075
STK4 (GeneID 6789),3,-0.42,-0.075
STK4 (GeneID 6789),4,-0.52,-0.075
STK4 (GeneID 6789),5,0.9,-0.075
STK4 (GeneID 6789),6,-0.06,-0.075
UTP25 (GeneID 27042),1,-2.04 (active),-0.33
UTP25 (GeneID 27042),2,-1.48 (active),-0.33
UTP25 (GeneID 27042),3,-0.42,-0.33
UTP25 (GeneID 27042),4,-0.24,-0.33
UTP25 (GeneID 27042),5,1.81 (active),-0.33
UTP25 (GeneID 27042),6,0.33,-0.33
MEPCE (GeneID 56257),1,0.6,0
MEPCE (GeneID 56257),2,-0.15,0
MEPCE (GeneID 56257),3,-0.47,0
MEPCE (GeneID 56257),4,0.15,0
MEPCE (GeneID 56257),5,-0.53,0
MEPCE (GeneID 56257),6,1.33,0
MOS (GeneID 4342),1,0.35,0.07
MOS (GeneID 4342),2,-0.62,0.07
MOS (GeneID 4342),3,-0.21,0.07
MOS (GeneID 4342),4,2.17 (active),0.07
MOS (GeneID 4342),5,0.8,0.07
MOS (GeneID 4342),6,-0.48,0.07
DND1 (GeneID 373863),1,0.3,0.375
DND1 (GeneID 373863),2,-0.59,0.375
DND1 (GeneID 373863),3,0.82,0.375
DND1 (GeneID 373863),4,-0.51,0.375
DND1 (GeneID 373863),5,4.26 (active),0.375
DND1 (GeneID 373863),6,0.45,0.375
RND2 (GeneID 8153),1,-1.11 (active),-1.09
RND2 (GeneID 8153),2,-1.72 (active),-1.09
RND2 (GeneID 8153),3,0.17,-1.09
RND2 (GeneID 8153),4,-1.88 (active),-1.09
RND2 (GeneID 8153),5,-1.07 (active),-1.09
RND2 (GeneID 8153),6,0.67,-1.09
TWIST1 (GeneID 7291),1,-0.85,0.375
TWIST1 (GeneID 7291),2,1.72 (active),0.375
TWIST1 (GeneID 7291),3,0.21,0.375
TWIST1 (GeneID 7291),4,3.59 (active),0.375
TWIST1 (GeneID 7291),5,0.54,0.375
TWIST1 (GeneID 7291),6,-0.09,0.375
DEFB110 (GeneID 245913),1,0.43,0.3
DEFB110 (GeneID 245913),2,-0.42,0.3
DEFB110 (GeneID 245913),3,0.17,0.3
DEFB110 (GeneID 245913),4,1.14,0.3
DEFB110 (GeneID 245913),5,2.11 (active),0.3
DEFB110 (GeneID 245913),6,-0.39,0.3
UBASH3A (GeneID 53347),1,-0.07,0.445
UBASH3A (GeneID 53347),2,0.68,0.445
UBASH3A (GeneID 53347),3,0.63,0.445
UBASH3A (GeneID 53347),4,1.37,0.445
UBASH3A (GeneID 53347),5,0.26,0.445
UBASH3A (GeneID 53347),6,-0.15,0.445
NLGN4X (GeneID 57502),1,-0.6,0.33
NLGN4X (GeneID 57502),2,0.95,0.33
NLGN4X (GeneID 57502),3,-0.26,0.33
NLGN4X (GeneID 57502),4,0.63,0.33
NLGN4X (GeneID 57502),5,0.03,0.33
NLGN4X (GeneID 57502),6,4.2 (active),0.33
ERC1 (GeneID 23085),1,-0.12,-0.075
ERC1 (GeneID 23085),2,0.45,-0.075
ERC1 (GeneID 23085),3,-0.03,-0.075
ERC1 (GeneID 23085),4,-0.14,-0.075
ERC1 (GeneID 23085),5,2.91 (active),-0.075
ERC1 (GeneID 23085),6,-0.15,-0.075
CDK8 (GeneID 1024),1,0.94,0.805
CDK8 (GeneID 1024),2,-1.34 (active),0.805
CDK8 (GeneID 1024),3,0.98,0.805
CDK8 (GeneID 1024),4,0.05,0.805
CDK8 (GeneID 1024),5,0.67,0.805
CDK8 (GeneID 1024),6,1.68 (active),0.805
H3C14 (GeneID 126961),1,0.78,-0.05
H3C14 (GeneID 126961),2,0.17,-0.05
H3C14 (GeneID 126961),3,-0.5,-0.05
H3C14 (GeneID 126961),4,-0.58,-0.05
H3C14 (GeneID 126961),5,0.16,-0.05
H3C14 (GeneID 126961),6,-0.26,-0.05
